Results reported in the supplement of paper PMC4962491.
± gives the standard deviation of the averaged measurements. The entries are a selection whose mix differs from that of the whole data set. Repeats in this data set agree poorly, so a single value says little.

Test system: FaDu
Assay: mitochondrial oxygen consumption rate normalised to cell number, Z score over the library; higher = higher oxygen consumption (negative = OCR reduction)
Details: treatment time 24 h, assay medium: 5 mM galactose, 5 mM pyruvate, 4 mM glutamine
Description: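 Primary screen: FaDu cells were incubated 24 h with Pharmakon 1600 / TDI oncology set compounds at 2 or 10 uM. Mitochondrial-specific OCR (basal minus 2 uM antimycin A) was measured on a Seahorse XF96 in assay medium with 5 mM galactose, 5 mM pyruvate and 4 mM glutamine, then corrected for Hoechst cell number and expressed as a Z score […]. Compounds that cut cell number by >66% were excluded. Two repeats.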

| Compound | mitochondrial oxygen consumption rate normalised (2 µM) | mitochondrial oxygen consumption rate normalised (10 µM) |
| --- | --- | --- |
| CN1[C@@H]2CC[C@H]1C[C@@H](OC(=O)C(CO)c1ccccc1)C2 (stereo partly specified) | 0.647 ± 1.5 | – |
| C[C@]12CCC(=O)C(O)=C1CC[C@@H]1[C@@H]2CC[C@]2(C)C(=O)CC[C@@H]12 | 0.625 ± 1.1 | – |
| CNC(C)(C)Cc1ccccc1 | 1.04 ± 0.16 | – |
| CCOP(=S)(OCC)Oc1cc(C)nc(C(C)C)n1 | 0.915 ± 1.4 | – |
| COc1ccc(C(CN(C)C)C2(O)CCCCC2)cc1 (stereo unspecified) | 1.39 ± 1.4 | – |
| CNC(=O)Oc1ccc2c(c1)[C@]1(C)CCN(C)[C@@H]1N2C | 0.676 ± 0.67 | – |
| CN(C)C(=O)Oc1cccc([N+](C)(C)C)c1 | -0.249 ± 0.36 | – |
| CN1[C@H]2C[C@H](OC(=O)[C@H](CO)c3ccccc3)C[C@@H]1[C@@H](O)C2 | 0.172 ± 0.24 | – |
| CN1CCc2cc3c(cc2C1O)OCO3 (stereo unspecified) | -0.398 ± 0.51 | – |
| O=c1[nH]c2ccccc2n1C1CCN(CCCC(c2ccc(F)cc2)c2ccc(F)cc2)CC1 | -0.716 ± 0.13 | -2.35 ± 0.37 |
| CC(=O)[O][Hg][c]1ccccc1 | 0.464 ± 0.097 | – |
| CC(=O)Nc1cc([As](=O)(O)O)ccc1O | -0.678 ± 0.61 | – |
| C#CCN(C)[C@H](C)Cc1ccccc1 | 0.845 ± 1 | – |
| CN(C)C(=O)Oc1ccc[n+](C)c1 | -0.929 ± 0.24 | – |
| NCCCNCCSP(=O)(O)O | 0.21 ± 0.095 | – |
| NCCCNCCSP(=O)(O)O [Amifostine] | 0.667 ± 0.72 | – |
| Nc1ccc([As](=O)(O)O)cc1 | 0.332 ± 0.24 | 0.928 ± 0.83 |
| COP(=S)(OC)Oc1cc(Cl)c(Cl)cc1Cl | 0.0038 ± 0.18 | – |
| CCCCCCCCC(=O)NCc1ccc(O)c(OC)c1 | 0.428 ± 1.4 | – |

Some values from above:
Entry of CN1[C@@H]2CC[C@H]1C[C@@H](OC(=O)C(CO)c1ccccc1)C2 (stereo partly specified) under mitochondrial oxygen consumption rate normalised (2 µM): 0.647 ± 1.5
Entry of COP(=S)(OC)Oc1cc(Cl)c(Cl)cc1Cl under mitochondrial oxygen consumption rate normalised (2 µM): 0.0038 ± 0.18
